These results are taken from publication PMC8297976.

Sequences of proteins named here, by UniProt entry; tags and fusion partners are left off.
UniProt F1MUZ3: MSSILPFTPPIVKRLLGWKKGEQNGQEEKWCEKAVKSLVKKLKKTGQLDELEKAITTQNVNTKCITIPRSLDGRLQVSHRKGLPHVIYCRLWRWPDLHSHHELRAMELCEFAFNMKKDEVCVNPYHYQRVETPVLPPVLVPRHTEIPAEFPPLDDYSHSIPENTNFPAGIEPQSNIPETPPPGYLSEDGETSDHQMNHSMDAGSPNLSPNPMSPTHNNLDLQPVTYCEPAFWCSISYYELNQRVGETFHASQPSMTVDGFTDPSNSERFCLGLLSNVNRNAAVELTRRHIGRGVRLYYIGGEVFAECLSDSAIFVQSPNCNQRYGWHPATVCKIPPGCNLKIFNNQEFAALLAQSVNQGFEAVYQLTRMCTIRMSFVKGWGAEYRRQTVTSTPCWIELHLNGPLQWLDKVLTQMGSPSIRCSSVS

The assay concerns the target Smad3 (bovine (endogenous in liver tissue of dairy cows)) (UniProt F1MUZ3). Nature of the assay: co-IP; endogenous proteins; lysates of bovine normal liver tissue incubated with the antibody at 4°C overnight, then protein A/G plus agarose beads for 4 h; immunoblotting; IgG as negative control. (In western blotting, separated proteins are transferred to a membrane and probed.)

No constants are given. Whether binding was seen depends on the method and setting. Binding seen in cells or lysates may run through a third protein. Some entries that bind do so weakly or less than the wild type.

B1: Ufm1 binding protein 1 (Ufbp1) (protein, UniProt Q1LZB0 1-313)
chain: MVSPVVYLVVAALLVGLILFLTRGRGRAAAAAQEPLHNEEVPAAAGRVARPQPLEPEEQRAAGRPRRRRDLGSRLQAQRRAQRVAWADENEEEAIIQAQEEEDIEKPVETHLSGKIGAKKLRKLEEKQARKAQREAEEAEREERKRLESQREAEWKKEEERLRLEEEQKEEEERKAQEEQAQREHEEYLKLKETFVVVEEGVGETMTEEQSHSFLAEFINYIKQSKVVLLEDLASQVGLRTQDTINRIQDLLAEGTLTGVIDDRGKFIYITPEELAAVANFIRQRGRVSITELAQASNSLIAWGRETPAQAPA
Take B1: the binding entry is given as “binds”.
